Assay results published in the supplement of paper PMC10849652.
The list shows a part of the results.

Protein sequences, listed by entry. Tags and fused reporters are not part of them. Lines headed by an entry give the natural chain unless they say otherwise; changes in a name come on top.
UniProt Q9H900: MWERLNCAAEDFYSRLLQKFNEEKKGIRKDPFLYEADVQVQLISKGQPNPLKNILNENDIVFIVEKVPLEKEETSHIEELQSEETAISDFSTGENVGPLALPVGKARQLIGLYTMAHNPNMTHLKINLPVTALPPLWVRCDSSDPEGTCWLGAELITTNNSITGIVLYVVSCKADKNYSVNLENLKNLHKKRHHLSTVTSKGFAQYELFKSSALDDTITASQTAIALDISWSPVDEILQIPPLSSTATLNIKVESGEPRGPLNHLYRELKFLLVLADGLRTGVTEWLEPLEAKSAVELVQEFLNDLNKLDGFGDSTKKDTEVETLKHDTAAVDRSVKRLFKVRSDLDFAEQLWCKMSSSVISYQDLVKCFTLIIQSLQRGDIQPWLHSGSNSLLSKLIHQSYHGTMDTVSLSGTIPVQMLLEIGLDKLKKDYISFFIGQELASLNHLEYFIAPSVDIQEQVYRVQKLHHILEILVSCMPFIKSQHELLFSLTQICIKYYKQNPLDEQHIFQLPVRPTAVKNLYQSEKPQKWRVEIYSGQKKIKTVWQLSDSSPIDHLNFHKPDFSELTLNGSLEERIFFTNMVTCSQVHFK
UniProt Q9UEG4: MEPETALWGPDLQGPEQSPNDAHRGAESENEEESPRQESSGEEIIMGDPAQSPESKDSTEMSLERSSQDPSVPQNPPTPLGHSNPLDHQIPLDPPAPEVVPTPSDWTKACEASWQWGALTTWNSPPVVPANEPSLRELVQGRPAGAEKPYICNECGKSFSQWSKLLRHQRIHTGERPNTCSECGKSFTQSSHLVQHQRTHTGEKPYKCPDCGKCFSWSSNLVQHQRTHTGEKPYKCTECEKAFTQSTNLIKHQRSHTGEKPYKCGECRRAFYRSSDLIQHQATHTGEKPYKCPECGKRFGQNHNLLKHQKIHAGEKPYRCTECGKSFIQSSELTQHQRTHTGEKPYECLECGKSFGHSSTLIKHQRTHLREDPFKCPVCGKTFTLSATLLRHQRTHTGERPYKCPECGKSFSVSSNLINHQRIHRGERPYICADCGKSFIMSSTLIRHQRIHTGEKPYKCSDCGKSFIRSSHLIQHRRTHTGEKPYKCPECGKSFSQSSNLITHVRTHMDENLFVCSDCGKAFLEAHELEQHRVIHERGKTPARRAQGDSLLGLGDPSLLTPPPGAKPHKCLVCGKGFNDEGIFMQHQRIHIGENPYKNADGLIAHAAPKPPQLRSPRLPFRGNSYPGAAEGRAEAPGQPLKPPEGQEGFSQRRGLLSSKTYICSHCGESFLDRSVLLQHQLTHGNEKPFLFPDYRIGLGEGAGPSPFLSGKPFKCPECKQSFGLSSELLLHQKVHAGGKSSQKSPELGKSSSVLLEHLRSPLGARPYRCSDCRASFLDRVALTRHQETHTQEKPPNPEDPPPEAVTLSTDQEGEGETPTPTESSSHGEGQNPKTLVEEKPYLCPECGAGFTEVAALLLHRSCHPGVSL
UniProt Q96NB3: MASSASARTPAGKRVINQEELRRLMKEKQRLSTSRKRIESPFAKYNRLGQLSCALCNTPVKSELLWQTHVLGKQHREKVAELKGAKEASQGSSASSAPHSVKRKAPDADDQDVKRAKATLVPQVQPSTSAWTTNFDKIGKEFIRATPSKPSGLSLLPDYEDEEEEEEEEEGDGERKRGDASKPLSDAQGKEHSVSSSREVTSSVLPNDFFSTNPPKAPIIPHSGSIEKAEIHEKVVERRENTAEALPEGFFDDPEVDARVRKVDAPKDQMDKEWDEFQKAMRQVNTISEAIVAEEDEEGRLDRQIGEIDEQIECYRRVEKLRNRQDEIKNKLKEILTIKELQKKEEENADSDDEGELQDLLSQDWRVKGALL
UniProt Q15649: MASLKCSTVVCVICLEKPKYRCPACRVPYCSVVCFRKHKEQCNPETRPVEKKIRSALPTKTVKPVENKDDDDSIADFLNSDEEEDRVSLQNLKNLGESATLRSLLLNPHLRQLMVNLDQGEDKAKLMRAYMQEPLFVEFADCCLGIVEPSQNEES
UniProt O43257, whole entry, looked up: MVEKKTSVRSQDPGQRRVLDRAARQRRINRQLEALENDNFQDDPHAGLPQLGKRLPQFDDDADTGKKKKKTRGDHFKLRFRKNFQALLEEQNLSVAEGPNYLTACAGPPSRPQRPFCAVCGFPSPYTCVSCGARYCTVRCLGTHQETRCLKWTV
UniProt Q9Y3S2: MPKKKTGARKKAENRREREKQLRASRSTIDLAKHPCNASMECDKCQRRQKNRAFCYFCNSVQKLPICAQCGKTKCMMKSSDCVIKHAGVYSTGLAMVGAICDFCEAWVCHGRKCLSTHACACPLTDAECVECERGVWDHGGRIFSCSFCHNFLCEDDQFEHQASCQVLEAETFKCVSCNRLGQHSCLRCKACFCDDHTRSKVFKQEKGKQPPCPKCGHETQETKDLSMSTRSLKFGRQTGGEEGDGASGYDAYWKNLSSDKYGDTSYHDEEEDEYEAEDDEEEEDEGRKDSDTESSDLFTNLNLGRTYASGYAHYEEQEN
UniProt Q9H5H4: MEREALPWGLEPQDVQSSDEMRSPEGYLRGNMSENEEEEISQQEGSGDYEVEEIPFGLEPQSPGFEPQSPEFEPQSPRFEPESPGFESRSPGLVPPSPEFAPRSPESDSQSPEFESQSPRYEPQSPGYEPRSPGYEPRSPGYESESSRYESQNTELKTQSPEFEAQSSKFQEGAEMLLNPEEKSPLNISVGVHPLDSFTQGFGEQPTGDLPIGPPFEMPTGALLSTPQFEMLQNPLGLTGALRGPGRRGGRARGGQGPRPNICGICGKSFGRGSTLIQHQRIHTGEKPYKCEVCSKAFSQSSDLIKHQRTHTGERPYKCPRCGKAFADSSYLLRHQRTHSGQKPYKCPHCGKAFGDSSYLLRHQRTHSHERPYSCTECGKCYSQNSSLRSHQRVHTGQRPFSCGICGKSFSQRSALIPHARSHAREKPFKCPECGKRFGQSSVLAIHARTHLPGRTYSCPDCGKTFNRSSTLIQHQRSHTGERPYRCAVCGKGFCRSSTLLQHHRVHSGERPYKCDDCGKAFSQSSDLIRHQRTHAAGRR
UniProt Q8NDX6: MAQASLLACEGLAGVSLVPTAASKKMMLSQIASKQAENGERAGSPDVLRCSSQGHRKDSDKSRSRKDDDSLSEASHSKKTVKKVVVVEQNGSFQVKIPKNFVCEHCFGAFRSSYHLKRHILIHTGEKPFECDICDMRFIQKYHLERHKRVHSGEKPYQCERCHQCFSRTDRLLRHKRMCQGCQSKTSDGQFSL
UniProt Q9UL40: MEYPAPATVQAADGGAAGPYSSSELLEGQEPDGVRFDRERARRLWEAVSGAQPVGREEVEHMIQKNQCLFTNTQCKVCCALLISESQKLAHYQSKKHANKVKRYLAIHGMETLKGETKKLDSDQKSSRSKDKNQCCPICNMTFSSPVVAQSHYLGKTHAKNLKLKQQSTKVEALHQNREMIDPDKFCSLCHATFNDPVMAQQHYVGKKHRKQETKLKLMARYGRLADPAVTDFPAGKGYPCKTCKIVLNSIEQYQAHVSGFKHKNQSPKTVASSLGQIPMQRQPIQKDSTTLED
UniProt Q8NAF0: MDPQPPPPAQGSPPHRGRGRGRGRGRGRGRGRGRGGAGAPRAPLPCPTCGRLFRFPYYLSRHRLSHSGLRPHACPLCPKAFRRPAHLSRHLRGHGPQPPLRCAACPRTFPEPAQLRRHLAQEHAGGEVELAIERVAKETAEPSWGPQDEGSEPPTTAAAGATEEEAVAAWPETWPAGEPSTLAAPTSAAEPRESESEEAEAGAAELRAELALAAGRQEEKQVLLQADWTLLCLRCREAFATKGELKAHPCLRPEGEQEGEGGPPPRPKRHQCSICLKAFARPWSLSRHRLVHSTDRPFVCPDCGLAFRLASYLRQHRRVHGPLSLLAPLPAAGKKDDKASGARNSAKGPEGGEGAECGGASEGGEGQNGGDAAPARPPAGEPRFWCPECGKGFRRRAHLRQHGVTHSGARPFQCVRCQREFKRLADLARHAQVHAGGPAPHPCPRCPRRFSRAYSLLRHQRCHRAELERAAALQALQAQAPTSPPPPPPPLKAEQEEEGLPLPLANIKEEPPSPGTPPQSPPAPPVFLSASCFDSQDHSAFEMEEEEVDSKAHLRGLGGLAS

What was measured:
Assay in all cases: log2 fold change, soluble protein after heating vs DMSO (PISA); higher = thermal stabilisation; K562 cells, 10 uM, 30 min; active = over 0.2 and 3.5 SD of the protein, either way, in both replicates (recomputed)
[1] = compound: C1=CC=C(C=C1)[C@H](COC2=CC3=C(C=C2)NC(=O)N3)NC(=O)C4=CC=CN(C4=O)CC5=CC(=C(C=C5)F)F
Outline: (§1)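 Values are thermal stability changes relative to control samples and are taken from duplicates. They are stated as log2 fold changes. Before quantification by TMTpro 16plex LC-MS/MS with equalised channel sums, K562 cells at 2×10^6 cells/mL were treated with 10 μM compound for 30 min, heated in aliquots for 3 min across 48°C-58°C, pooled, extracted in PBS with 0.5% NP-40 at 4°C, and centrifuged at 21,000xg for 90 min to give the soluble supernatant.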

[2] = compound: CC1=C(SC2=C1C(=N[C@H](C3=NN=C(N32)C)CC(=O)N)C4=CC=C(C=C4)Cl)C
Outline: as §1

[3] = compound: CC1=C2C(=CC=C1)N=C(N(C2=O)C3=CC=CC=C3C)CN4C=NC5=C(N=CN=C54)N
Outline: as §1

[4] = compound: Cc1sc2c(c1C)C(c1ccc(Cl)cc1)=N[C@@H](CC(=O)OC(C)(C)C)c1nnc(C)n1-2
Outline: as §1

[5] = compound: c1ccc([C@@H]2C[C@H]2NC2CCNCC2)cc1
Outline: as §1

Measured: log2 fold change

ZWILCH (UniProt Q9H900)
inactive: [1] -0.077 | [2] 0.036 | [3] 0.063 | [4] 0.037 | [5] 0.002

ZNF629 (UniProt Q9UEG4)
inactive: [1] 0.018 | [2] -0.193 | [3] -0.242 | [4] 0.139 | [5] 0.045

ZNF830 (UniProt Q96NB3)
inactive: [1] 0.024 | [2] -0.017 | [3] 0.006 | [4] -0.027 | [5] 0.049

ZNHIT3 (UniProt Q15649)
inactive: [1] -0.004 | [2] 0.019 | [3] -0.012 | [4] 0.048 | [5] 0.089

ZNHIT1 (UniProt O43257)
inactive: [1] -0.066

ZNF330 (UniProt Q9Y3S2)
inactive: [1] -0.03 | [2] -0.067 | [3] 0.004 | [4] 0.018 | [5] 0.006

ZNF768 (UniProt Q9H5H4)
inactive: [1] 0.028 | [2] -0.374 | [3] -0.132 | [4] 0.175 | [5] -0.044

ZNF740 (UniProt Q8NDX6)
inactive: [1] 0.172 | [2] 0.004 | [3] 0.004 | [5] 0.075

ZNF346 (UniProt Q9UL40)
inactive: [1] 0.045 | [2] -0.066 | [3] -0.099 | [4] 0.079 | [5] 0.019

ZNF579 (UniProt Q8NAF0)
inactive: [1] 0.05 | [2] -0.074 | [3] -0.025 | [4] 0.151 | [5] -0.147
